According to publication PMC10163288:
This is one part of the list.

B1: il2ra_site2_3nfp_sap_29_mot_HHH_b1_06797_000000164_0001_24_40_H_._HHH_b1_04575_0001_0000200009_0000001_0_0001 (protein)
chain: TRELSNRIFELARRGDPVAWLLYALLADVATEGDPELQRLLEEALEALERGNPEEAKEIVEEALR
B2: il2ra_site1_3nfp_sap_10_mot_119b7766384adbe86006a62bce89dba1_0001_af2_000000092_0001_18_32_H_._HHH_b2_00752_0001_0000100003_0000001_1_0001 (protein)
chain: SSSSNQALEWLEEAAEKAFEEGNRHDIRAILRLLEEALKKFGNPEAKEVVRIIEELLEELSSSSS
B3: il2ra_site2_2erj_sap_20_mot_HHH_b1_01338_000000092_0001_1_18_H_._HHH_b1_00894_0001_0000800019_0000001_0_0001 (protein)
chain: SSSSDERIRLAMQLVDELAQEFNLDAEQLHALWELAKELLERGVSEEELREELERLVEELNSSSS
B4: il2ra_site2_2erj_sap_22_mot_c2bf78bdce995293a161f7082e24b401_0001_af2_000000082_0001_17_32_H_._HHH_b2_05133_0001_0000600016_0000001_0_0001 (protein)
chain: SSSSDEELHEIFELLSLLLEAIQKGDDELFKKLVEEVRQLIEEKGSPNLREILEWLERHFHSSSS
B5: il2ra_site2_3nfp_sap_14_mot_HHH_b2_00746_000000285_0001_20_36_H_._HHH_b1_07255_af2_0001_0000100001_0000001_0_0001 (protein)
chain: SSSSKQEEYLRAALELAKEALEAGDPEVARRHAEIALLAAEDARDPELFEEIEELLEEIRGSSSS
B6: il2ra_site1_3nfp_normal_mot_HHH_b1_03753_af2_000000088_0001_41_54_H_._HHH_b1_07972_af2_0001_0000200013_0000001_0_af2pred_0001_af2pred_swapped (protein)
chain: SSSSSERERVRRILERAMEAAFNGNPEEAKELLKEAEELARELGNERLLKKIEYDLRVIEGSSSS
B7: il2ra_site1_2b5i_normal_mot_HHH_b2_04910_000000118_0001_1_19_H_._HHH_b1_05884_0001_0000500029_0000001_0 (protein)
chain: SSSSSEETRELQELFREADELDRRGNEEEAEEVLREAIELARQAGSRSMLKMLESALKELGSSSS
B8: il2ra_site2_3nfp_normal_mot_HHH_b2_06150_000000251_0001_1_17_H_._HHH_b2_07927_0001_0000200027_0000001_1 (protein)
chain: SSSSDEEEREVERLLKEAKELLEEGDPEEARQVLAEAAHLAFRLGNVELFAEIAKLYLELGSSSS
B9: il2ra_site2_2erj_sap_25_mot_3b06bd03f1c6bceadc68eab912867b79_0001_000000296_0001_36_50_H_._HHH_b2_02691_0001_0000100001_0000001_1_0001 (protein)
chain: SSSSTEELHELYKLLVELLRLWAEGDEEKIEELLRRVEELAEKLQSESAREIVELVQKELSSSSS
B10: il2ra_site1_3nfp_sap_16_mot_HHH_b1_00630_af2_000000193_0001_42_55_H_._190733a505cf72e9f5bb281964386224_0001_1_af2_0001_0000500030_0000001_0_0001 (protein)
chain: THLRHVTKMIEEMAKKMGVPSVEVEVHNGTVHVRLEGTDEAARAAAEAAESMAEFAGISFEIEHE
B11: il2ra_site1_2b5i_normal_mot_HHH_b2_04910_000000118_0001_1_19_H_._HHH_b1_00058_af2_0001_0000900023_0000001_0_af2pred_dldesign_0_af2pred (protein)
chain: SSSSSAAEEARALFLKANELKQAGKEEEAKKVLEEALEKARAAGANLLARMIELALEQLESSSSS
B12: il2ra_site2_3nfp_normal_mot_HHH_b1_05628_af2_000000064_0001_19_35_H_._HHH_b1_05635_af2_0001_0000200017_0000001_0_af2pred_0001_1_af2pred_swapped (protein)
chain: SSSSDEEVEELLERAKELLERGNLEEAEKVIRRAASLASELNDHELFAIASELMWELLELLSSSS
B13: il2ra_site2_3nfp_sap_17_mot_HHH_b1_07052_000000239_0001_40_58_H_._3f793dc3d3e05f21786c6523247b6786_0001_1_0001_0000300009_0000001_0_0001 (protein)
chain: SSSSDHEEDLLRAVILLARLAYEQGDPEAAERHLRMAEKTARDAGNEELLKEIEKLLEEINSSSS
B14: il2ra_site2_3nfp_normal_mot_HHH_b2_03679_af2_000000123_0001_41_56_H_._HHH_b1_07302_0001_0000600048_0000001_0 (protein)
chain: SSSSDREEYLRAALLLLEWAVEEGDEELVEKLFHLIHLFVEDARDPEAEKRLEELYERFRSSSSS
B15: il2ra_site2_3nfp_sap_23_mot_HHH_b1_01086_000000225_0001_20_36_H_._HHH_b1_07035_0001_0000200008_0000001_0_0001_af2pred_0001_af2pred_1 (protein)
chain: SSSSSEEELEKLVEELEQLVERNDKEKFREVSSRASQLAWELGDVEVFRLLAELLLRILGSSSSS
B16: il2ra_site1_2b5i_normal_mot_HHH_b1_06833_000000178_0001_1_19_H_._HHH_b1_00669_af2_0001_0000400022_0000001_0_af2pred_dldesign_0_af2pred (protein)
chain: SSSSNPEVEKLMEELEEAAKTDEQWELYRKAKKEIIKLLLQGKPEEAKKLAEETLEEIKALSSSS
B17: il2ra_site2_3nfp_normal_mot_HHH_b1_05627_af2_000000038_0001_43_56_H_._HHH_b2_05144_0001_0000200005_0000001_1 (protein)
chain: SSSSKAEEYLRIALELLREALEEGDEEAARTIAEAALALAENLNDEEVEEEVEKVLRELESSSSS
B18: il2ra_site1_2b5i_normal_mot_HHH_b2_07442_af2_000000069_0001_1_16_H_._HHH_b1_08272_0001_0000700028_0000001_0_af2pred_0001_af2pred_1 (protein)
chain: SSSSDEEFERVLELFREASRLFQEGDPEEARKVLEEAREIAEEANDPVAREDLERFQKFINSSSS
B19: il2ra_site1_1z92_sap_12_mot_HHH_b2_04974_000000012_0001_1_17_H_._HHH_b1_06150_af2_0001_0000300041_0000001_0_0001_af2pred_dldesign_0_af2pred (protein)
chain: SSSSSSPYQRARDLILEINKARQAGDTEKFDELLAELEKLAKELESNTLLRFIEHARKELSSSSS
B20: il2ra_site2_3nfp_normal_mot_HHH_b1_05628_af2_000000064_0001_19_35_H_._HHH_b1_08457_0001_0000200016_0000001_0 (protein)
chain: SSSSDAEERVKELEKELREAEEEGDEELLEKLAFELFALASDLQDRRLASLAARLLFELRSSSSS
B21: il2ra_site1_1z92_sap_20_mot_HHH_b1_04647_af2_000000143_0001_21_38_H_._HHH_b1_02373_0001_0000300016_0000001_0_0001 (protein)
chain: SSSSDRSLEWAEELLRLALRLGSEKNIRFLTQFLKILAKAKNDPEAEELVEEAEKVLEELSSSSS
B22: il2ra_site1_2b5i_normal_mot_HHH_b2_04910_000000118_0001_1_19_H_._HHH_b1_06419_0001_0000500029_0000001_0 (protein)
chain: SSSSTEETREIIELFKEADRLDREGNEEEARKLLERALELAEEFGNKSLLRMVEFALRQLSSSSS
B23: il2ra_site1_2b5i_normal_mot_f5ff40796168375b462bec8614a1db4a_0001_1_000000138_0001_53_65_H_._HHH_b1_08036_0001_0000100001_0000001_0 (protein)
chain: SSSSDSFEQSAEDLLEEARRLIENGNPHEARSILHLARASARRAGNPELVEEIERLLEEASSSSS
B24: il2ra_site2_3nfp_sap_18_mot_HHH_b2_05281_000000198_0001_39_56_H_._25e4e8523bb898988f824d7176892a6f_0001_0001_0000300020_0000001_0_0001 (protein)
chain: SSSSSDERHEEMVELAIEAAKAAGDEEVLEELRELLERAREEGDYRLLLEAYALAARLYKNSSSS
B25: il2ra_site2_3nfp_normal_mot_HHH_b1_00660_af2_000000090_0001_40_57_H_._HHH_b1_02249_0001_0000400045_0000001_0_af2pred_0001_af2pred_swapped (protein)
chain: SSSSDEEEVRELLERAEELRKEGNPEEAEELLKRAALIAIEANDHELFALIVEVLERVLQSSSSS
B26: il2ra_site1_3nfp_sap_12_mot_HHH_b1_00630_af2_000000193_0001_42_55_H_._HHH_b2_07301_0001_0000900037_0000001_0_0001_af2pred_0001_af2pred_1 (protein)
chain: SSSSSREEVERLVEEAEEAAREGDAKLASELSRRIFELAKETGDPEIVKLLRELLEKAIRLSSSS
B27: il2ra_site2_3nfp_normal_mot_HHH_b1_04032_000000208_0001_43_56_H_._ems_3hM_3301_af2_0001_0000200004_0000001_0 (protein)
chain: SDEEQAELVLELIEAHALVHNDDEVRELVEELKELLEEAEKKNDEELVERIAELANELAHRVVNS
B28: il2ra_site2_2erj_sap_32_mot_HHH_b1_02841_000000003_0001_43_57_H_._HHH_b1_02948_0001_0000100003_0000001_0_0001 (protein)
chain: SSSSDESEEILEEAKELLEEAREKGDLHLLFRIASEAAERLARLGDHEALDRLNEFFMRLQSSSS
B29: il2ra_site1_2b5i_normal_mot_22370d59370c406a0c205a431f537cfa_0001_af2_000000141_0001_1_31_H_._HHH_b2_03163_af2_0001_0000300027_0000001_0 (protein)
chain: SSSDRELTHFAVRVVWELAVRLGLSFEQRRELNQLAAELVDEGFSEEEIEEILREEAEKLKSSSS
B30: il2ra_site2_2erj_sap_25_mot_64bd02d26d05ce9f1a62b616cea0b888_0001_af2_000000029_0001_36_49_H_._HHH_b2_07515_0001_0000800026_0000001_0_0001 (protein)
chain: SSSDVEERILRLLWEALRALVNGNPEEAKELVKEAKELAEELGNEELRRWIEAFEETIKSVSSSS
B31: il2ra_site1_2b5i_normal_mot_HHH_b2_01822_000000237_0001_40_54_H_._HHH_b2_01564_0001_0000800029_0000001_0_af2pred_dldesign_0_af2pred (protein)
chain: SSSSCPATRRVTELLEEANKLEDEEKREELLKEARRIAEENKCPQALRLVEWFEKEWKAESSSSS
B32: il2ra_site2_2erj_normal_mot_HHH_b1_01239_000000175_0001_43_57_H_._HHH_b2_02641_0001_0000400036_0000001_0_af2pred_0001_af2pred (protein)
chain: SSSSSSSETEEEVRRLLEEAEQVSDIQEAYELLEEASRLALELEDEEAFQLVDEVAKRLSSSSSS
B33: il2ra_site2_3nfp_normal_mot_HHH_b1_00239_000000199_0001_23_39_H_._HHH_b1_06021_0001_0000100008_0000001_0 (protein)
chain: SSSTEEEIEELLRQVEELLKEGDTYEAAELLARASELVARLGDEELARLVLRLYEILRRLYSSSS
B34: il2ra_site1_1z92_sap_15_mot_4eadacea29f80ea3a0abedbb5e3c3690_0001_af2_000000154_0001_35_49_H_._HEEHE_2194_0001_0000300049_0000001_0_0001 (protein)
chain: SSSSSDLEKQIEFLLRQIERALERNSEKLVRRLLEMVKRAAEEANDEELLEEVEELKERISSSSS
B35: il2ra_site2_2erj_normal_mot_HHH_b1_02757_000000121_0001_41_57_H_._HHH_b1_07526_0001_0000300010_0000001_0 (protein)
chain: SSSSDRKAFETLEELDRLLQEGDDEEFERLVEEFQRELEERGDEVTLESFREMVELAREVLSSSS
B36: il2ra_site1_3nfp_sap_8_mot_HHH_b2_00386_af2_000000253_0001_43_53_H_._HHH_b2_02858_0001_0000100001_0000001_0_0001_af2pred_dldesign_0_af2pred (protein)
chain: SSSSSSNIKELLEKANELAKAGDLEEAKKVLEEALELAKKLGLNKTVKFIERCLKLLESSSSSSS
B37: il2ra_site1_1z92_normal_mot_30aa582283ecb64a35315be28fff3e94_0001_000000110_0001_35_49_H_._HHH_b1_05084_0001_0000100006_0000001_0 (protein)
chain: SSSSTLERTAKRLVEDFIKLAGLSEEQQELLRKLAEELVEEGFSPQEIARILEEVAIKLEESSSS

biological target: il2ra, P01589; assay: yeast display titration

Apparent Kd, inactive:
B1 no binding seen
B2 no binding seen
B3 no binding seen
B4 no binding seen
B5 no binding seen
B6 no binding seen
B7 no binding seen
B8 no binding seen
B9 no binding seen
B10 no binding seen
B11 no binding seen
B12 no binding seen
B13 no binding seen
B14 no binding seen
B15 no binding seen
B16 no binding seen
B17 no binding seen
B18 no binding seen
B19 no binding seen
B20 no binding seen
B21 no binding seen
B22 no binding seen
B23 no binding seen
B24 no binding seen
B25 no binding seen
B26 no binding seen
B27 no binding seen
B28 no binding seen
B29 no binding seen
B30 > 690 nM
B31 no binding seen
B32 no binding seen
B33 no binding seen
B34 no binding seen
B35 no binding seen
B36 no binding seen
B37 no binding seen

Fetched one by one from above (two):
Apparent Kd, inactive:
B25 no binding seen
B13 no binding seen
